The assay concerns the target GST-Rhotekin-RBD (7-89aa) (UniProt Q8C6B2). Put plainly: pull-down; CD18/HPAF cell lysates (1% Triton X-100, 10 mM MgCl2, 4°C) incubated 1 h with agarose beads coated with GST-PAK1, GST-WASP or GST-Rhotekin; immunoblot for Rac1, Cdc42 or RhoA; cells treated with vehicle, compounds #1-#10, NSC23766 or EGF, or lysate with 1 mM GDP; only the target purified. (In general: In western blotting, separated proteins are transferred to a membrane and probed.)

The chains behind the UniProt entries cited, without tags or fusion partners. Where a name states a change or a piece, a line headed by the entry shows the natural chain unless it says otherwise.
UniProt Q8C6B2: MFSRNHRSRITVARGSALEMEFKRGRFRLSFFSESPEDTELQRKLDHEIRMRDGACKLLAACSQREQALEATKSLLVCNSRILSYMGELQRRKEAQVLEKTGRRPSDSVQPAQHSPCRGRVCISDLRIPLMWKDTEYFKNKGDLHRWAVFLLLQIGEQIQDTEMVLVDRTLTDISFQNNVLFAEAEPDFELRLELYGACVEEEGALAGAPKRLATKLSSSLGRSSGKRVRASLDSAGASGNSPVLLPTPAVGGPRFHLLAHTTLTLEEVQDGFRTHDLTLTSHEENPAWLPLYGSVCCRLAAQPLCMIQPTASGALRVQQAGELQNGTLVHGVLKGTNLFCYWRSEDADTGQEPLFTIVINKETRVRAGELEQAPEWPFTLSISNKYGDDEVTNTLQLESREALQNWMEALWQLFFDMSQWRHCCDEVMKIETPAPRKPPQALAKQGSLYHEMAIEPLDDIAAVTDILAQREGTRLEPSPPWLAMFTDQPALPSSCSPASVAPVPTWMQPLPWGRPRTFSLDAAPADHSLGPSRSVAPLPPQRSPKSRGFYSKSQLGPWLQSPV
UniProt P61586: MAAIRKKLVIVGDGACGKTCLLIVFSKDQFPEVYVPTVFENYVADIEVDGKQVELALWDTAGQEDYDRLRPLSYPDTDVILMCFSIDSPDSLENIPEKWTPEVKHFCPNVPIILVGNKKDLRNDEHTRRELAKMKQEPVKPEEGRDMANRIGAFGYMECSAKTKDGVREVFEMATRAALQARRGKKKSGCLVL

No constants are given. Whether binding was seen depends on the method and setting. Binding seen in cells or lysates may run through a third protein. Binding calls can cover weak binding; strength is not graded here.

As to “RhoA (endogenous, CD18/HPAF cells), GTP-bound (from UniProt P61586 1-193)”, the binding entry is listed as “binds”.

The values are drawn from publication PMC5470993, “Discovery and characterization of small molecule Rac1 inhibitors” (Oncotarget, 2017).
